This is an account of results in PubChem BioAssay AID2685 (National Center for Advancing Translational Sciences (NCATS), 2010).

Structures are written as SMILES. The list shows a part of the results. Further columns of the screen follow, without active or inactive calls. Most of these compounds were active or inconclusive in the main read-out, so they are no random draw. Potencies come from curve fits of mixed quality, noted in brackets.

A short description of the test: qHTS Assay for Lipid Storage Modulators in Drosophila S3 Cells.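 As to cell number change: cells counted by Cell Tracker Red CMTPX staining in the red channel.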 To be noted: BODIPY lipid droplet fluorescence, 18-24 h; for cell number change: measured here: cell count max response, cells fed with added oleic acid. An outline of the steps: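 Laser-scanning cytometry quantifies lipid droplet accumulation (500–530 nm total intensity; droplet/cell object ratio) in oleic acid-fed (400 uM added) Drosophila S3 cells treated with a concentration series. 20 uM Triacsin C defined 100% inhibition.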
A general note: In qHTS, concentration-response curves come from the screen itself.

[1] abbreviates: measured here: cell number channel AC50, cells fed with added oleic acid.
Where [2] appears, read: measured here: lipid fluorescence (Fed channel) AC50, cells fed with added oleic acid.

On to `COc1ccc(CNC(=O)c2sccc2C)cc1`, for which the cell number change was determined as 21.6%. For the same compound, the AC50 under setting [1] is 0.291 µM [rising, full curve, poor fit]. Also, the AC50 under setting [2] is 18.4 µM [rising, partial curve]. For `CCOC(=O)c1c(C)oc(/N=C/c2ccccc2O)c1C#N`, the cell number change was -10.1%. In addition, under setting [2], the AC50 is 6.51 µM [falling, single point]. Consider `Cn1c2c(c(=O)n(C)c1=O)C(NC(=O)C(C)(C)C)(C(F)(F)F)C(=O)N2` (stereo not drawn), for which the cell number change was determined as 14.2%. Besides, under setting [2], the AC50 was 29.1 µM [falling, single point]. As to `CC1(C)CC(=O)C2=C(C1)N(c1ccccc1)C(=O)CC2c1ccsc1` (stereo not drawn), the cell number change worked out at 19.9%. Further, under setting [2], the AC50 was 20.6 µM [rising, single point]. Consider `O=C(CC1NCCNC1=O)Nc1ccc(Oc2ccccc2)cc1` (stereo not drawn), for which the AC50 under setting [1] is 2.06 µM [rising, partial curve] and the AC50 under setting [2] was 6.51 µM [rising, single point]. Take `COc1cc(S(=O)(=O)N2CCN(c3ccccc3)CC2)ccc1Cl`: the cell number change is 8.03%. For the compound `Cc1ccccc1Cn1c(=N)n(CC(O)c2ccco2)c2ccccc21` (stereo not drawn), the cell number change was 49.8%. The AC50 under setting [1] is 20.6 µM [rising, single point]. On to `O=C(Nc1nc(-c2ccc(Br)cc2)cs1)c1cccnc1`, for which the cell number change was -0.176%. The AC50 under setting [2] was 29.1 µM [falling, partial curve, poor fit]. As to `CN(Cc1ccc(F)cc1)C(=O)C(c1ccccc1)c1ccccc1`, the cell number change is 43.7%. Moreover, the AC50 under setting [1] is 29.1 µM [rising, single point].

On to `CC(Oc1ccc(C#N)cc1)C(=O)c1ccc(F)c(F)c1` (stereo not drawn), for which the AC50 under setting [2] was 6.51 µM [falling, single point]. Turning to `CC(C)(C)c1ccc(C(=O)NCC(=O)OCC(=O)Nc2nc(-c3ccc(F)cc3)cs2)cc1`, the cell number change was -48.2%. Besides, the AC50 under setting [1] was 1.16 µM [falling, full curve]. Further, the AC50 under setting [2] was 0.00517 µM [falling, full curve, poor fit]. On to `CC1CN(C2CCN(S(=O)(=O)c3ccccc3)CC2)CC(C)O1` (stereo not drawn), for which the cell number change was -24.1%. The AC50 under setting [2] was 0.82 µM [falling, full curve, poor fit]. For the compound `CCCN(C(=O)CSc1nc2ccccc2n1CC)C1CCS(=O)(=O)C1` (stereo not drawn), the cell number change was 17.3%. Consider `Cc1ccc(-n2ncc(C(=O)NC3CC3)c2C2CCN(C(=O)OC(C)(C)C)CC2)c(C)c1`, for which the cell number change was 3.79%. Also, the concentration at half-maximal activity (AC50) under setting [2] is 0.517 µM [falling, full curve]. For the compound `COc1ccc(NC(=O)/C(Cl)=C(/Cl)S(=O)Cc2ccc(C)cc2)cn1` (stereo not drawn), the cell number change is -172%. The AC50 under setting [1] was 3.66 µM [falling, full curve]. Take `CCOCC(=O)Nc1ccc(Br)c(C)c1`: the cell number change was -18.4%. The AC50 under setting [1] was 2.31 µM [falling, single point]. Further, the AC50 under setting [2] is 3.66 µM [falling, partial curve, poor fit]. Turning to `CC(C)(C)NC(=O)CN(C(=O)c1snc(C(=O)NC2CCCCC2)c1N)c1ccc(F)cc1`, the cell number change is -33.3%. The AC50 under setting [1] is 29.1 µM [falling, single point]. Also, under setting [2], the half-maximal activity concentration (AC50) is 0.206 µM [rising, single point].

For the compound `CCc1nc2c(sc3nc4c(cc32)COC(C)(C)C4)c(=O)n1CCN(CC)CC`, the cell number change was 5.49%.

As for `Cc1nc(SCC(C)C)[nH]c(=O)c1Cc1ccccc1`, the cell number change was -22.4%. In addition, the AC50 under setting [2] was 0.82 µM [falling, full curve, poor fit]. For `COc1ccc(-c2nnc(SCc3nnc(-c4ccccc4)o3)n2-c2ccccc2)cc1`, the cell number change was found to be 4.75%. Moreover, the AC50 under setting [2] is 0.116 µM [rising, full curve]. With `CNC(=S)NNC(=O)c1sccc1OCc1cccc(C(F)(F)F)c1`, the cell number change was -10.1%. For the compound `COc1cccc(C(=O)c2ncc(C(F)(F)F)cc2Cl)c1`, the cell number change was found to be 10.9%. Consider `CCN1CCN(S(=O)(=O)c2ccc(OC)c(Br)c2)CC1`, for which the AC50 under setting [1] is 0.082 µM [falling, partial curve, poor fit]. With `Cc1nnsc1NC(=O)OCc1ccc(C(C)(C)C)cc1`, the cell number change was -12.6%. For the same compound, the AC50 under setting [2] is 29.1 µM [falling, single point].

As for `COCCN(C(=O)COC(=O)CC(C)c1ccccc1)c1c(N)n(Cc2ccccc2)c(=O)[nH]c1=O` (stereo not drawn), the cell number change is -10.4%. In the case of `Cn1c(SCC(=O)NCC2CCCO2)ncc(C(=O)Nc2ccc(F)cc2)c1=O` (stereo not drawn), the cell number change amounted to 7.3%. The AC50 under setting [2] is 5.17 µM [falling, single point].

As for `O=C(NC1CCCCC1)NC1CCN(CC(=O)N2CCOCC2)CC1`, the cell number change was determined as 8.36%. In addition, the AC50 under setting [2] was 29.1 µM [falling, single point].

With `Cc1ccc(S(=O)(=O)/N=C(\CSC(N)=O)Nc2ccccc2)cc1`, the cell number change was -52.2%. Moreover, under setting [1], the AC50 is 0.146 µM [falling, full curve]. In addition, the AC50 under setting [2] was 0.92 µM [falling, full curve].

Turning to `CC(C)Oc1ccc(C2NC(=O)NC2=O)cc1` (stereo not drawn), the cell number change is 1.29%. In the case of `O=C(NNC(=O)c1cccs1)c1ccc(Cl)c(Cl)c1`, the cell number change amounted to 22.3%. Also, the AC50 under setting [2] was 2.59 µM [rising, single point].

On to `COc1cccc(C(=O)n2cnnc2N)c1OC`, for which the AC50 under setting [2] was 6.51 µM [falling, single point]. Turning to `O=C(CCS(=O)(=O)c1ccccc1)NCCS(=O)(=O)c1ccccc1`, the AC50 under setting [1] was 1.64 µM [falling, single point] and the AC50 under setting [2] was 0.58 µM [falling, single point]. For the compound `Cc1ccc(C(O)CCc2ccc(N)cc2)cc1` (stereo not drawn), the cell number change is 15.3%. For the same compound, the AC50 under setting [2] is 0.731 µM [rising, full curve, poor fit].

In the case of `C/C(=N/Oc1nc(C)cc(C)n1)c1ccc(F)cc1`, the cell number change is 13.9%.

Regarding `CC(=O)N(CCS(=O)(=O)c1ccc(Cl)cc1)Cc1cccs1`, the half-maximal activity concentration (AC50) runs as follows: under setting [1], 0.0651 µM [falling, full curve, poor fit]; under setting [2], 0.058 µM [falling, full curve, poor fit].

Take `COc1ccc(CN2CCC(Cc3ccccc3)CC2)cc1OC`: the cell number change is 4.05%. Under setting [2], the AC50 is 1.84 µM [falling, single point]. Turning to `O=C(O)C1CC=CCC1C(=O)NNc1c(Cl)cc(Cl)cc1Cl` (stereo not drawn), the cell number change is -19.4%. Under setting [1], the AC50 is 0.082 µM [falling, full curve, poor fit]. Also, the AC50 under setting [2] was 0.146 µM [falling, full curve, poor fit]. Take `COc1ccc(/C=N/NC(=O)c2ccc(NC(C)=O)cc2)cc1COc1ccc(F)cc1F`: the cell number change is -60.9%. Also, the concentration at half-maximal activity (AC50) under setting [1] was 5.8 µM [falling, full curve]. Moreover, the AC50 under setting [2] was 5.17 µM [falling, full curve].

On to `O=C(COC(=O)CNC(=O)c1ccccc1)NCCc1ccccc1`, for which the cell number change is -34.5%. In addition, the AC50 under setting [1] is 32.6 µM [falling, single point].

For `CCOC(=O)/C=C1\Nc2ccccc2OC1=O`, the cell number change was -1.5%. Moreover, the AC50 under setting [2] was 0.58 µM [rising, single point]. For the compound `O=C(COc1ccc(Cl)cc1Cl)N1CCN(C(=O)c2ccco2)CC1`, the cell number change came out at 7.89%. Consider `Cc1ccc(NC(=O)C2CC(=O)N(C(C)C)C2)cc1C` (stereo not drawn), for which the cell number change was 23.7%. Further, the AC50 under setting [2] is 29.1 µM [rising, single point]. For the compound `CN(CC1CCN(CCc2cccc(C(F)(F)F)c2)CC1)C(=O)c1ccc(F)cc1`, the cell number change was -29.9%. For the same compound, the AC50 under setting [2] is 1.84 µM [falling, full curve].

As for `O=C(c1cccc(-c2ccccc2F)c1)N1CC[C@@H](N2CCC(O)CC2)[C@H](O)C1`, the cell number change is -11.4%. In the case of `O=C(Nc1ccc(N2CCOCC2)cc1)C1CCCCC1`, the cell number change stood at 15.7%. Moreover, the AC50 under setting [1] is 0.58 µM [rising, full curve, poor fit]. Moreover, the AC50 under setting [2] was 4.11 µM [falling, full curve, poor fit].

Regarding `CN(C)S(=O)(=O)c1ccc(N2CCCC2)c(C(=O)NNC(=O)c2ccc(Br)cc2)c1`, the cell number change came to 131%. In addition, the AC50 under setting [1] is 29.1 µM [rising, single point]. Also, the AC50 under setting [2] is 29.1 µM [rising, single point].

On to `Cc1cccc(Nc2nc3c(S(=O)(=O)c4ccccc4)nnn3c3ccccc23)c1`, for which the cell number change was -1.33%. `S=C(NCc1ccncc1)Nc1cc(Cl)cc(Cl)c1`: the cell number change was -6.07%. Moreover, under setting [2], the AC50 was 29.1 µM [falling, single point].

`O=C(CSc1ccc2nnc(-c3ccncc3)n2n1)Nc1ccccc1F`: the cell number change is 3.9%. Further, the AC50 under setting [2] was 3.66 µM [falling, full curve]. Take `O=C(Nc1ccnc(-c2ccncc2)n1)c1ccc(F)cc1`: the cell number change was 18.2%. Further, the AC50 under setting [1] was 4.61 µM [rising, partial curve, poor fit]. Regarding `Cc1c(C)n(C)c2ccc(C(=O)NCCCN3CCN(C)CC3)cc12`, the cell number change is 9.17%. With `COc1ccc(-c2nn(-c3ccccc3)cc2C(N)=O)cc1OC`, the cell number change was found to be 3.81%. As to `O=C(c1ccccc1)N1CCN(C(=O)c2ccc3c(c2)OCO3)CC1`, the cell number change was determined as 10.1%. In addition, the AC50 under setting [2] is 0.517 µM [rising, full curve]. Consider `O=C(Cn1cccc1C(=O)c1ccccc1)NCc1ccc2c(c1)OCO2`, for which the cell number change stood at 26.1%. In addition, under setting [1], the AC50 was 3.26 µM [rising, partial curve]. Also, the AC50 under setting [2] is 0.651 µM [rising, full curve]. As to `CCCC(=O)N1CCN(c2ccc(NC(=O)c3cccs3)cc2Cl)CC1`, the cell number change was -31.7%. The AC50 under setting [1] was 5.8 µM [falling, partial curve]. Also, the AC50 under setting [2] was 11.6 µM [falling, partial curve]. As to `CCCn1nc(C(=O)OCc2nc(N)nc(Nc3ccccc3C)n2)c2ccccc2c1=O`, the cell number change is 4.84%. For the same compound, the AC50 under setting [2] is 23.1 µM [rising, single point]. Turning to `Cc1ccc(-c2noc(CCC(=O)NCc3ccc4c(c3)OCO4)n2)cc1`, the cell number change is 20.8%. Further, the AC50 under setting [2] is 5.17 µM [rising, full curve]. Regarding `Cc1ccc(NC(=O)c2cc(N3C(=O)C=CC3=O)ccc2Cl)cc1C`, the cell number change was -58%. The AC50 under setting [1] is 13 µM [falling, partial curve]. For the same compound, under setting [2], the AC50 was 13 µM [falling, partial curve]. Regarding `CC(=O)c1ccc(NC(=O)CC(C)S(=O)(=O)c2ccc3c(c2)CCN3C(C)=O)cc1` (stereo not drawn), the cell number change stood at 6.6%. As for `O=C(NC(=S)N1CCCCCC1)c1cccc([N+](=O)[O-])c1`, under setting [2], the AC50 was 7.31 µM [falling, partial curve, poor fit]. In the case of `O=C(O)c1cc(NC(=O)c2ccco2)cc(NC(=O)c2ccco2)c1`, the cell number change stood at 7.14%. Besides, under setting [2], the AC50 is 6.51 µM [rising, single point]. Regarding `CCCCCn1c(=O)[nH]c2cc(C(=O)NCCCN3CCCCC3)ccc2c1=O`, the cell number change is -28.8%. Moreover, the AC50 under setting [2] is 29.1 µM [falling, single point].

What is called AC50 is the concentration at which the activity in the assay is half-maximal. High values mean weaker potency, low ones greater potency.
